For part of these data: For at least one compound, name, drawing or mass did not settle the structure. Some of these results come from one statement about several compounds together.
Columns and labels:
[1] = system: astrocytoma derived cell lines; experiment: Drug sensitization by siRNAs in 6 astrocytoma derived cell lines treated with CDDP (MTT); format: cell-based, human; conditions: highest value over the sensitized cell lines
From the text: FIG. 2 illustrates drug sensitization by siRNAs targeting four DNA repair genes: ERCC1, ERCC2, MUTYH, and PNKP. SiRNAs were transfected in 6 different astrocytoma derived cell lines treated with CDDP or temozolomide (TMZ). DS corresponds to chemosensitivity induced by siRNA. siRNA targeting ERCC1 was included for comparison. Data represented the mean of 3 independent experiments. Only significant results were reported (*p<0.05; **p<0.01).
U87, U373, U138, CCF and LN229 cells deriving from human astrocytoma were purchased from American Type Culture Collection (ATCC). GHD cell line derived from a human astrocytoma biopsy, was checked by fluorescence in situ hybridization, chromosome 7 polysomy, chromosome 10 monosomy and immuno-histo-chemistry. […]
Cells were seeded in 96 well plates, transfected with siRNA after 24 h and treated with cisplatine (CDDP, MERCK, […] final concentration) or temozolomide (TMZ, SCHERING-PLOUGH, […] final concentration) after 48 h. Cell survival was determined 96 hours post-treatment, by measuring mitochondrial succinate dehydrogenase activity, with 3-[4,5-dimethylthiazol-2-yl]-2,5-diphenyltetrazolium bromide (MTT, SIGMA) added to a final concentration of 0.5 mg/ml into culture medium. […] Optical density was read at 540 nm. […] It was calculated as follows: cell number (OD) with chemotherapy/cell number (OD) in control condition. […]

glioblastoma = conditions: associated to radiotherapy, phase III study; cited from earlier work

In the case of “5′-cacacuguauuuggucaau-3′ (sense CACACUGUAUUUGGUCAAU; antisense AUUGACCAAAUACAGUGUG; siRNA; listed as RNA, chemistry not fully specified) [SEQ ID NO: 31, siRNA targeting PNKP]”, the “siRNA-induced drug sensibilization index (DS)” value [1] is reported as “up to 17%”.
In the case of `Cn1nnc2c(C(N)=O)ncn2c1=O` [temozolomide], the increase survival (glioblastoma) is listed as 3 months.
In the case of “5′-gcugacauaucaaguauau-3′ (sense GCUGACAUAUCAAGUAUAU; antisense AUAUACUUGAUAUGUCAGC; siRNA; listed as RNA, chemistry not fully specified) [SEQ ID NO: 30, siRNA targeting MUTYH]”, the “siRNA-induced drug sensibilization index (DS)” value [1] is reported as “up to 17%”.

— US8293886B2, “Sensizitation of cancer cells to therapy using sina targeting genes from the 1P and 19Q chromosomal regions” (Universite Joseph Fourier, priority 2006, dated 2012)
